This is an account of results in PMC5816610.

Chains of the proteins cited; added tags and fusions are not shown. Lines headed by an entry give the natural chain unless they say otherwise; changes in a name come on top.
UniProt P0ACJ8: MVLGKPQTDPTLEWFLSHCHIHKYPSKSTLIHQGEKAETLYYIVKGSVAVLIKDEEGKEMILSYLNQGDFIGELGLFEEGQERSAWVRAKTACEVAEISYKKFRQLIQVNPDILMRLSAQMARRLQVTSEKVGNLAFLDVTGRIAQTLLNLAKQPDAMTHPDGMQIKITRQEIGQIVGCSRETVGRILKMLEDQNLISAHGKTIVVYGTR

The series deals with CRP (purified) (UniProt P0ACJ8). Nature of the series: EMSA. The settings on record: 37 C, 1 pmol DNA, 10 min then 30 min with protein, 5% PAGE in 1xTBE, purified CRP +/-200 uM cAMP, recombinant protein, residues 1-210, protein details: pET28b NdeI/Bpu1102 insert, called native CRP, probe letters rebuilt from the primers and the genome; for binding signal (fold vs no cAMP): 200 uM cAMP; for binding result: no cAMP. (Mobility shift assays separate free from complexed probe on a gel.)

The direction of at least one scale is not stated here.

Take “GCGATCAGCATGAGGAGTTGGTCGTGCCGCGGGTTACCGGTTAGTTCGGTAAGGCTCATGAAAATTCCTCGAAAAACCATCACCCTGGCATTTTATACAAAAAGTGACAAAAAAGATCGGGTTTGATCACAGTCAGGGATCCCGGCTCGTCCACCGGGACGTGTGCATTTTAACGCCGCTACACCGCTGGCGAAGCGGACTGACTCCGCTAAATCCCCACTTGTTGCCAGCGCCACCGCCAAAGCGCCGTGAAAAACATCACCCGCACCTGTGGTATCTACCACATCAACTTTGAAGGCCGGTTGA (double strand) [yihV/W intergenic region]”: the binding signal (fold vs no cAMP) stood at 1.3 and the binding result was “binds”.

Take “GTCGGTAACCCTTCCACGTAATAGATGCGATCCATCACGGTTATACCTACACAAGCAACACGAATCATGGTCATTCCTTAAACATTTTGGGATGCGTTCATTTTAATTTCACCAATTGTTTAAAAAGTGACGGCTGTCAATTTTTTGACGATAAATTACAAATACGATCAAAAACAGACAAGCAAAGCATGTCATAAATGACAAAAAGTGACATAACTGTATTCAGGAGAGGGTTATGGCAGCAATCGCGTTTATCGGTTTAGGACAAATGGGTTCGCCAATGGCGAGCAATTTATTGCAGCAAGGGCATCAACTTCGCGTCTTTGATGTGAACG (double strand) [yihU/V intergenic region]”: the binding signal (fold vs no cAMP) is 1.3 and the binding result is “binds”.
